Data source: PubChem BioAssay AID1224828 (NIAID, 2016)

Test: 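Knock-downs that increase or decrease LPS-induced p65 nuclear translocation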 (primary screen)
System: mouse RAW264.7 G9 macrophage reporter cells (GFP-p65, Tnf promoter-mCherry)
Knock-down reagent: siRNA pool against mouse genes, 100 nM
Time to read-out: 2 days siRNA transfection, then 40 min LPS before fixation
Challenge: LPS (Salmonella minnesota R595) at 10 ng/ml
Measurement: 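Microscopy ratio of nuclear to perinuclear-ring GFP-p65 signal, scaled to the plate median; gene score is the average of two replicate robust z-scores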
Direction: p65 translocation robust z-score: higher = more nuclear NF-kappaB p65 after LPS than the plate median; nuclear/cytoplasmic p65 ratio: higher = more nuclear NF-kappaB p65
Rule for the call: 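Called active when z exceeds 3.3 or falls under -1.56 (median of Tlr4 controls), giving activity score of at least 50; no calls for control wells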
Meaning of the calls: active = hit (p65 shift raised or lowered); inactive = no clear change
The whole screen tested about 17,000 reagents; shown is a part drawn at random. 762 of all reagents (4.5%) count as active. 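Active calls include both raised and lowered p65 entry, mostly lowered; wells with fewer than 50 cells lack a z-score.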 The raw values are shown without normalisation. The numbers tell different reagents against one gene apart. No sequences are given here.

target | reagent | p65 translocation robust z-score | nuclear/cytoplasmic p65 ratio, rep 1 | nuclear/cytoplasmic p65 ratio, rep 2 | low cell count flag | outcome
Pigyl | 1 | -1.03 | 1.27 | 1.28 | enough cells to score | inactive
Ablim1 | 1 | -0.42 | 1.51 | 1.59 | enough cells to score | inactive
Tgfb1i1 | 1 | -0.6 | 1.5 | 1.37 | enough cells to score | inactive
Vezf1 | 1 | -0.72 | 1.62 | 1.2 | enough cells to score | inactive
Plekha6 | 1 | -0.84 | 1.29 | 1.18 | enough cells to score | inactive
Cct6a | 1 | -0.54 | 1.42 | 1.28 | enough cells to score | inactive
Prdm4 | 1 | -0.29 | 1.52 | 1.31 | enough cells to score | inactive
Exosc8 | 1 | – | 1.29 | 1.36 | fewer than 50 cells per well; well left out of scoring | inactive
Evi2a | 1 | -0.69 | 1.47 | 1.57 | enough cells to score | inactive
Myot | 1 | 1.01 | 1.59 | 1.7 | enough cells to score | inactive
Gtf2a1l | 1 | -0.87 | 1.26 | 1.28 | enough cells to score | inactive
Tarbp2 | 1 | -0.46 | 1.42 | 1.49 | enough cells to score | inactive
Taar5 | 1 | 0.78 | 1.58 | 1.73 | enough cells to score | inactive
Gen1 | 1 | 0.27 | 1.39 | 1.51 | enough cells to score | inactive
Ets1 | 1 | -0.32 | 1.51 | 1.25 | enough cells to score | inactive
Synpr | 1 | 0.07 | 1.38 | 1.2 | enough cells to score | inactive
Clec4n | 1 | -0.66 | 1.49 | 1.68 | enough cells to score | inactive
Slc4a1ap | 1 | -1.33 | 1.15 | 1.51 | enough cells to score | inactive
E2f1 | 1 | -0.2 | 1.46 | 1.35 | enough cells to score | inactive
Wdr20rt | 1 | 0.08 | 1.44 | 1.24 | enough cells to score | inactive
Cdhr1 | 1 | -1.43 | 1.2 | 1.12 | enough cells to score | inactive
Kcnip3 | 1 | -0.8 | 1.34 | 1.3 | enough cells to score | inactive
Mmp15 | 1 | 0.4 | 1.48 | 1.41 | enough cells to score | inactive
Glis3 | 1 | – | 1.35 | 1.66 | fewer than 50 cells per well; well left out of scoring | inactive
Mpv17 | 1 | -0.2 | 1.96 | 1.38 | enough cells to score | inactive
Rspo3 | 1 | 0.23 | 1.42 | 1.19 | enough cells to score | inactive
Mgat4d | 1 | – | 1.47 | 1.59 | fewer than 50 cells per well; well left out of scoring | inactive
Thoc7 | 1 | -0.91 | 1.64 | 1.11 | enough cells to score | inactive
Thoc7 | 2 | -0.57 | 1.33 | 1.49 | enough cells to score | inactive
Vmn1r30 | 1 | – | 1.26 | 1.19 | fewer than 50 cells per well; well left out of scoring | inactive
Atf7 | 1 | 1.22 | 1.73 | 1.86 | enough cells to score | inactive
Ubqlnl | 1 | – | 1.02 | 1.08 | fewer than 50 cells per well; well left out of scoring | inactive
S1pr1 | 1 | -1.83 | 1.25 | 1.31 | enough cells to score | active
Or5k1 | 1 | -0.21 | 1.5 | 1.46 | enough cells to score | inactive
Cd4 | 1 | 0.5 | 1.83 | 1.4 | enough cells to score | inactive
Trp53bp1 | 1 | 0.51 | 1.56 | 1.6 | enough cells to score | inactive
Klc4 | 1 | 1.72 | 1.48 | 1.78 | enough cells to score | inactive
Or8d6 | 1 | 0.11 | 1.44 | 1.27 | enough cells to score | inactive
Klk1b21 | 1 | -0.09 | 1.49 | 1.47 | enough cells to score | inactive
Gli1 | 1 | -0.25 | 1.36 | 1.38 | enough cells to score | inactive
6030443O07RIK | 1 | – | 1.34 | 1.42 | fewer than 50 cells per well; well left out of scoring | inactive
Rims3 | 1 | -0.93 | 1.41 | 1.11 | enough cells to score | inactive
Samm50 | 1 | -1.45 | 1.3 | 1.35 | enough cells to score | inactive
Armh3 | 1 | -0.38 | 1.38 | 1.49 | enough cells to score | inactive
Fhl1 | 1 | -0.99 | 1.11 | 1.35 | enough cells to score | inactive
Zmynd11 | 1 | -0.93 | 1.5 | 1.35 | enough cells to score | inactive
Sstr3 | 1 | – | 1.43 | 1.65 | fewer than 50 cells per well; well left out of scoring | inactive
Sectm1b | 1 | 0.75 | 1.55 | 1.3 | enough cells to score | inactive
Uimc1 | 1 | 0.48 | 1.59 | 1.58 | enough cells to score | inactive
Ms4a6d | 1 | -0.37 | 1.82 | 1.46 | enough cells to score | inactive
Ms4a6d | 2 | -1.21 | 1.6 | 1.39 | enough cells to score | inactive
Ncapd3 | 1 | -1.31 | 1.47 | 1.26 | enough cells to score | inactive
Unc13b | 1 | 0.15 | 1.53 | 1.53 | enough cells to score | inactive
Usp26 | 1 | -0.52 | 1.5 | 1.38 | enough cells to score | inactive
Fkbp7 | 1 | -1.99 | 1.21 | 1.27 | enough cells to score | active
B3galt6 | 1 | 0.95 | 1.75 | 1.64 | enough cells to score | inactive
1810055G02Rik | 1 | – | 1.54 | 1.36 | fewer than 50 cells per well; well left out of scoring | inactive
Efnb2 | 1 | -0.99 | 1.43 | 1.23 | enough cells to score | inactive
Osbpl11 | 1 | -0.56 | 1.4 | 1.15 | enough cells to score | inactive

Reformatted: 5 of the entries above
target,reagent,p65 translocation robust z-score,"nuclear/cytoplasmic p65 ratio, rep 1","nuclear/cytoplasmic p65 ratio, rep 2",low cell count flag,outcome
Cct6a,1,-0.54,1.42,1.28,enough cells to score,inactive
Prdm4,1,-0.29,1.52,1.31,enough cells to score,inactive
Exosc8,1,,1.29,1.36,fewer than 50 cells per well; well left out of scoring,inactive
Evi2a,1,-0.69,1.47,1.57,enough cells to score,inactive
Myot,1,1.01,1.59,1.7,enough cells to score,inactive
